Results are given in words; binding and its absence hold for the method and conditions named. Some results given as binding are weak or reduced against the parent protein; the word gives no strength.
Target: low density lipoprotein receptor-related protein (LRP), endogenous on GM00701 human fibroblasts (human (endogenous in GM00701)) (UniProt Q07954)
Experiment: radioligand binding; ^125I-α2M (1 μg/ml) on confluent GM00701 cells, 4°C, 3 h, 20 mM Hepes pH 7.4, 150 mM NaCl, 2 mM CaCl2, 1% BSA; without or with RAP-GST (50 μg/ml) or unlabeled α2M (10 μg/ml); scintillation counting of cells solubilized in 0.1 N NaOH; only the binder purified

By UniProt entry, the sequences of proteins in these tests, tags left out. Residues count along the entry.
UniProt Q07954, residues 20-4544: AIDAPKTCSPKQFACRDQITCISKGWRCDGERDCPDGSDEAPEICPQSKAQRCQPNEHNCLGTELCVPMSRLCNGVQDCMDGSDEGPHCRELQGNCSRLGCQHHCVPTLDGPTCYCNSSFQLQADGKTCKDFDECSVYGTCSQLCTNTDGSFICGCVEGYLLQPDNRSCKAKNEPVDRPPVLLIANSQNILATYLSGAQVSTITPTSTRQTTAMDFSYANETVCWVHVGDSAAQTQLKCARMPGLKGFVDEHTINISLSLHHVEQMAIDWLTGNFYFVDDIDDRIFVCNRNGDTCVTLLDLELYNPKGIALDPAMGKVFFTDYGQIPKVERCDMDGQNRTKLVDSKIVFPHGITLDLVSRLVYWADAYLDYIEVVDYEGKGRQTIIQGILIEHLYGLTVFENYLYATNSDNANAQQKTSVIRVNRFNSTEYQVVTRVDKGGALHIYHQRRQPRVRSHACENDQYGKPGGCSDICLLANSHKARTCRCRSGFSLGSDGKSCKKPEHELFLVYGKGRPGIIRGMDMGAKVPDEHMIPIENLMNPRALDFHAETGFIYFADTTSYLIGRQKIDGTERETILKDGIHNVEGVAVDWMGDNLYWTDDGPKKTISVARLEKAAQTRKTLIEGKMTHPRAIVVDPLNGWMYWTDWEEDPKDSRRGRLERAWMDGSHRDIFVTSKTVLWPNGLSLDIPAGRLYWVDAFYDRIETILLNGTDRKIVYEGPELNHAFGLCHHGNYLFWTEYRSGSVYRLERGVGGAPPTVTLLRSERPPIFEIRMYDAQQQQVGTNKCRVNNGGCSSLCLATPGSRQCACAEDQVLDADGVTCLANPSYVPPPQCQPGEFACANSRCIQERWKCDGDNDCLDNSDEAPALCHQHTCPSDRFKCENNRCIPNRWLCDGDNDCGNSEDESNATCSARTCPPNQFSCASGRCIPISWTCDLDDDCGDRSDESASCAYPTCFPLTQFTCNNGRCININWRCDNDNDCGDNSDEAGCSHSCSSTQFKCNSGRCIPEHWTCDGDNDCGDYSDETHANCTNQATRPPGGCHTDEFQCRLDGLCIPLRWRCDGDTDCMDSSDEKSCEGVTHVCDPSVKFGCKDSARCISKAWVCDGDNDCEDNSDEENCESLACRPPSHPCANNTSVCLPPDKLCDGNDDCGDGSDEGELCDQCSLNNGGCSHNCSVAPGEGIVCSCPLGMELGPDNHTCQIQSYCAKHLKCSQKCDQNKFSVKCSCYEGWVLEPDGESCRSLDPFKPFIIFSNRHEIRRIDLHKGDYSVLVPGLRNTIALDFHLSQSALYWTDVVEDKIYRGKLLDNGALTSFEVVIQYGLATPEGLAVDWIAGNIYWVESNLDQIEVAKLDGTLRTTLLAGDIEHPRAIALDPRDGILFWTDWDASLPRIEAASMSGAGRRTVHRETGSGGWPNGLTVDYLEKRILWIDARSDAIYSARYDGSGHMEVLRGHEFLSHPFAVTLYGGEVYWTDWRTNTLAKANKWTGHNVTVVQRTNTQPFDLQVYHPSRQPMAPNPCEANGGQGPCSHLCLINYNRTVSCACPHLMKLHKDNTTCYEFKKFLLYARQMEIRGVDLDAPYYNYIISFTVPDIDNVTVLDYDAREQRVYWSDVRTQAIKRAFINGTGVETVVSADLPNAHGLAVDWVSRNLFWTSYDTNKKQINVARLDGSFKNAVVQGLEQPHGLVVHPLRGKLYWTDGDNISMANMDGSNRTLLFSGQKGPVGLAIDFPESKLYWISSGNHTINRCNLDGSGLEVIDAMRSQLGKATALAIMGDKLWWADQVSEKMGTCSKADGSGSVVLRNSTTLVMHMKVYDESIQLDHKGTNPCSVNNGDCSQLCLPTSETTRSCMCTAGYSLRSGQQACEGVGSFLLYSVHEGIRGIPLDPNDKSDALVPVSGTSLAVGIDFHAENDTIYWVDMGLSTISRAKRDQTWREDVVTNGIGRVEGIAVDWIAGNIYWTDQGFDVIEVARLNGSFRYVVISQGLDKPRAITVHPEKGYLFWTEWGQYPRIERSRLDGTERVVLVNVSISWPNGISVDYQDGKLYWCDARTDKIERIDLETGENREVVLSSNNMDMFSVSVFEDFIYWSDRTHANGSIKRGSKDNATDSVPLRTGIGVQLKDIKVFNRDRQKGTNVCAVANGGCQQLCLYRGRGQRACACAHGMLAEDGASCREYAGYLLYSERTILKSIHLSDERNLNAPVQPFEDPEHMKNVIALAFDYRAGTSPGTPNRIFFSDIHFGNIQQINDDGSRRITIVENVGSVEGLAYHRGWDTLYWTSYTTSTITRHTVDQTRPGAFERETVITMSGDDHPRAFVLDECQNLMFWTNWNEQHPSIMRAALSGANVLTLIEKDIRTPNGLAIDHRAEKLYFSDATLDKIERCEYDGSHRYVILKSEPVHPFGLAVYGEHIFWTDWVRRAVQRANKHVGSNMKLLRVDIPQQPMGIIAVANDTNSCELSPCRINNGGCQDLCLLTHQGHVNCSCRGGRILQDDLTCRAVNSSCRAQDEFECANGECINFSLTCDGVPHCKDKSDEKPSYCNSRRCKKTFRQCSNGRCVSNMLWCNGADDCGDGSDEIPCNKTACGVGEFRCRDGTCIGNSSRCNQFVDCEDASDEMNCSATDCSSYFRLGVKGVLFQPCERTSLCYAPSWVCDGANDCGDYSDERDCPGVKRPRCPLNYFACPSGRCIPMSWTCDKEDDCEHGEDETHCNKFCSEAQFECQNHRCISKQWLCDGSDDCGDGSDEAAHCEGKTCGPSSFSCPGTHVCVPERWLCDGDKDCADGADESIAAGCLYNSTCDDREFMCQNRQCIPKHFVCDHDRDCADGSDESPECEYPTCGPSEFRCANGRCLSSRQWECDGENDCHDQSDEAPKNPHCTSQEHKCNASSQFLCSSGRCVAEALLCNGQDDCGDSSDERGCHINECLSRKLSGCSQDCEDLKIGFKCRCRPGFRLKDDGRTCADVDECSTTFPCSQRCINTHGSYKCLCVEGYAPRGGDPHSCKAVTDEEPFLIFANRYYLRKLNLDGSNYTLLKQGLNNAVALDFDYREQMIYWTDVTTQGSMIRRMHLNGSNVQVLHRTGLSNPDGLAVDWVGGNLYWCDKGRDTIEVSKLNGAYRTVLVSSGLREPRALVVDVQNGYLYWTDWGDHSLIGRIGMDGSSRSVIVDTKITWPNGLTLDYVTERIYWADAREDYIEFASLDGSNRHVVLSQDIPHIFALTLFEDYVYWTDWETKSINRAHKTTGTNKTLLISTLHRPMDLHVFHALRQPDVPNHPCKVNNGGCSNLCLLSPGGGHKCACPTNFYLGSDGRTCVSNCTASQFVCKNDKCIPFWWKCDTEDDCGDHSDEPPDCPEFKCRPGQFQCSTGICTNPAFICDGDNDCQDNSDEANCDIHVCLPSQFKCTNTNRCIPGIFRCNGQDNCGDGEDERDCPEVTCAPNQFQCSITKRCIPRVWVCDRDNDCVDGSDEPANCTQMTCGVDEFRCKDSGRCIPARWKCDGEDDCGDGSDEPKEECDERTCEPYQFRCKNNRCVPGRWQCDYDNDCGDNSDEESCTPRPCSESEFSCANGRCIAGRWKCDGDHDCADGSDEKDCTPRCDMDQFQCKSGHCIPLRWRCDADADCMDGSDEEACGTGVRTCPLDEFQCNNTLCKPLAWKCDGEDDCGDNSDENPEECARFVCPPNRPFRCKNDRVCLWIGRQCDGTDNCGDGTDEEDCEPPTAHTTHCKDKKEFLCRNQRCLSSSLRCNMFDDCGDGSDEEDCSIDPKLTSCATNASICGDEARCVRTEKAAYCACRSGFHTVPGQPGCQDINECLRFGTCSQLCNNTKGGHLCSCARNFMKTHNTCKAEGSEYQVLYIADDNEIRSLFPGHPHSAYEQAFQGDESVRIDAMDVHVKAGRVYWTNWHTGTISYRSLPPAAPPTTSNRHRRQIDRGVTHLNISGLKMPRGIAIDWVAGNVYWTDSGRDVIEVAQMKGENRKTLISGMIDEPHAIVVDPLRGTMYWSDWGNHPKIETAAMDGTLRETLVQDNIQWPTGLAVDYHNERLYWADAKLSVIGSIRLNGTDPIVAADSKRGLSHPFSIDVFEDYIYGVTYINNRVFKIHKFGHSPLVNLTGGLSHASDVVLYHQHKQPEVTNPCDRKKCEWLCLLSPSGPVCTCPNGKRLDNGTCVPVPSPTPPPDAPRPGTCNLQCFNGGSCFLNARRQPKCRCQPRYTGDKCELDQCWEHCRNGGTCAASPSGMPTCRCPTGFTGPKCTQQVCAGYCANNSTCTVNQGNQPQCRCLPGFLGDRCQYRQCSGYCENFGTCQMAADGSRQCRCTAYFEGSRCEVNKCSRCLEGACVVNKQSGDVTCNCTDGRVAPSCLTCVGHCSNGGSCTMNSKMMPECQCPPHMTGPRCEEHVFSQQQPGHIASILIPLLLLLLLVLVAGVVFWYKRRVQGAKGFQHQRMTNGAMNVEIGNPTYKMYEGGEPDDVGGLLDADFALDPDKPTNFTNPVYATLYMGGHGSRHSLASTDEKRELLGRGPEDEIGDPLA

B1: Human α2-macroglobulin (α2M), methylamine-activated (ligand, UniProt P01023 24-1474)
chain: SVSGKPQYMVLVPSLLHTETTEKGCVLLSYLNETVTVSASLESVRGNRSLFTDLEAENDVLHCVAFAVPKSSSNEEVMFLTVQVKGPTQEFKKRTTVMVKNEDSLVFVQTDKSIYKPGQTVKFRVVSMDENFHPLNELIPLVYIQDPKGNRIAQWQSFQLEGGLKQFSFPLSSEPFQGSYKVVVQKKSGGRTEHPFTVEEFVLPKFEVQVTVPKIITILEEEMNVSVCGLYTYGKPVPGHVTVSICRKYSDASDCHGEDSQAFCEKFSGQLNSHGCFYQQVKTKVFQLKRKEYEMKLHTEAQIQEEGTVVELTGRQSSEITRTITKLSFVKVDSHFRQGIPFFGQVRLVDGKGVPIPNKVIFIRGNEANYYSNATTDEHGLVQFSINTTNVMGTSLTVRVNYKDRSPCYGYQWVSEEHEEAHHTAYLVFSPSKSFVHLEPMSHELPCGHTQTVQAHYILNGGTLLGLKKLSFYYLIMAKGGIVRTGTHGLLVKQEDMKGHFSISIPVKSDIAPVARLLIYAVLPTGDVIGDSAKYDVENCLANKVDLSFSPSQSLPASHAHLRVTAAPQSVCALRAVDQSVLLMKPDAELSASSVYNLLPEKDLTGFPGPLNDQDNEDCINRHNVYINGITYTPVSSTNEKDMYSFLEDMGLKAFTNSKIRKPKMCPQLQQYEMHGPEGLRVGFYESDVMGRGHARLVHVEEPHTETVRKYFPETWIWDLVVVNSAGVAEVGVTVPDTITEWKAGAFCLSEDAGLGISSTASLRAFQPFFVELTMPYSVIRGEAFTLKATVLNYLPKCIRVSVQLEASPAFLAVPVEKEQAPHCICANGRQTVSWAVTPKSLGNVNFTVSAEALESQELCGTEVPSVPEHGRKDTVIKPLLVEPEGLEKETTFNSLLCPSGGEVSEELSLKLPPNVVEESARASVSVLGDILGSAMQNTQNLLQMPYGCGEQNMVLFAPNIYVLDYLNETQQLTPEIKSKAIGYLNTGYQRQLNYKHYDGSYSTFGERYGRNQGNTWLTAFVLKTFAQARAYIFIDEAHITQALIWLSQRQKDNGCFRSSGSLLNNAIKGGVEDEVTLSAYITIALLEIPLTVTHPVVRNALFCLESAWKTAQEGDHGSHVYTKALLAYAFALAGNQDKRKEVLKSLNEEAVKKDNSVHWERPQKPKAPVGHFYEPQAPSAEVEMTSYVLLAYLTAQPAPTSEDLTSATNIVKWITKQQNAQGGFSSTQDTVVALHALSKYGAATFTRTGKAAQVTIQSSGTFSSKFQVDNNNRLLLQQVSLPELPGEYSMKVTGEGCVYLQTSLKYNILPEKEEFPFALGVQTLPQTCDEPKAHTSFQISLSVSYTGSRSASNMAIVDVKMVSGFIPLKPTVKMLERSNHVSRTEVSSNHVLIYLDKVSNQTLSLFFTVLQDVPVRDLKPAIVKVYDYYETDEFAIAEYNAPCSKDLGNA
modifications: activated with 0.4 M methylamine; ^125I label (Iodo-Beads)
  binding: binds

— PMC1592478
